These results are taken from PubChem BioAssay AID1508600 (Functional Genomics Laboratory (NCATS/FGL), 2020).

About 3,700 (7%) of roughly 53,000 sequences were called active.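 How the source made its calls: active means gene knockdowns whose robust z-score for IL-1 alpha signal is at least 2 or at most -2, so actives lie on both sides; inactive means the rest.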 Some of the results follow.

A short description of the test: Components of the Cytosolic LPS Sensing Pathway: Gene Identification via Genome-wide siRNA Screen. Conditions: RAW264.7 macrophages, IL-1a HTRF, actives lie on both sides, screened at 100 nM (by protocol), cells primed 5 h with Pam3CSK4 first. The source says: Non-canonical inflammasome activation by cytosolic LPS is a critical component of the host response to Gram-negative bacterial infection, however we lack a comprehensive understanding of the cellular processes that control this pathway. Here we describe a genome-wide siRNA screen to identify genes regulating the mouse macrophage IL-1 alpha response to cytosolic LPS.
RAW264.7 cells were maintained in complete DMEM media, comprising DMEM with 4.5 g/L glucose, 10% FBS (Gemini Bio-Products, West Sacramento, CA), 2 mM Glutamine (Lonza) and 20 mM HEPES (Lonza), hereafter complete DMEM.
The RNAi screen was conducted in 384-well format using the Ambion Silencer Mouse Genome siRNA Library (#4391425), which consists of three unique, nonoverlapping, nonpooled siRNAs for each of 17,000 gene targets. siRNA reagents ([…]) were stamped into 384-well white flat-bottom microplates (Corning, 3570) using a Velocity11 VPrep liquid handling system (Agilent) integrated into a BioCel robotic platform (Agilent) in columns 1-22, leaving columns 23-24 empty for negative (Ambion, Negative control #1) and positive (mouse Casp4) controls, respectively. The median value of each plate's negative control column was used to normalize sample wells, and the positive control was used to assess transfection efficiency and assay performance.
Lipofectamine RNAiMAX Transfection Reagent ([…]; Invitrogen) was added in […] serum-free, antibiotic-free media to plate wells using a Thermo Scientific Matrix WellMate and Microplate Stacker. Plates were incubated for 45 min at room temperature to allow for the sufficient formation of siRNA-lipid complexes. Cells were seeded at a density of 1x10^4 cells per well in 20 microL media containing 20% (vol/vol) FBS without antibiotics. The final concentration of siRNA in each well was 100 nM. Cells were cultured for 48h at 37 degrees C in 5% CO2 before addition of […] of TLR ligand Pam3CSK4 for 5 hours. The medium was then removed, replaced with […] growth media and cell were transfected with […] of LipidA and TransIT-TKO (Mirus) for 24 hour. At the end of the LipidA treatment, […] of supernatant was transferred to a 384 Greiner Bio-one non-binding low volume plate and […] of IL-1a HTRF reagent (Cisbio, 62MIL1APEH) was added and incubated at room temperature overnight. The plates were read on an EnVision plate reader (PerkinElmer). Cell viability was measured by adding 20ul Cell Titer Glo to the original plate and running a luminescence read on the EnVision. The quantified IL-1a signal for each siRNA gene-targeted well was divided by the median of the negative control wells and multiplied by 100 to achieve a negative control normalized value for each well/siRNA. This normalized value was then used to generate a robust z-score by first taking the log of each value and then by subtracting the median and dividing by the […].
Take GGUCAGUCGGUUGUUACUATT against Ttpal: the z-score was inactive: -1.93.

For the sequence GCUCUAUAGUUAAUUAGGGTT against Rbm3, the z-score was inactive: -0.0883.

For CGUUUGUACCUGCGGAAAATT against Olfr270, the z-score was inactive: 0.76.

As to CCACAUGACCUUACAGCCATT against Zdhhc8, the z-score was inactive: -1.54.

Consider “GGAGGCCAUCACACUUAGATT against 4933421I07Rik”, for which the z-score is active: -2.27.

Turning to GCAGGUCUUACCAGAUCGATT against Thap3, the z-score was inactive: -0.765.

In the case of GGACUUUGAUCAGCUGUCUTT against Tmem17, the z-score is active: -2.12.

Consider GGCUGCCUUGCUGAUUUGATT against Boc, for which the z-score is inactive: 0.762.

GGACAAGACUCUCAGUUCATT against Atpaf1: the z-score was inactive: 0.77.

For the sequence GGUACCAAUAAUGGAUUUUTT against Ambn, the z-score is inactive: 1.1.

As to GGCCUUUUUUAAAAGAAGCTT against Esr2, the z-score is inactive: -0.0947.

On to GCGGACCUGCUGUUAUGAATT against Sema3b, for which the z-score is inactive: 1.34.

As to GCACCUCUCAAAGAGUUUATT against Rin2, the z-score is inactive: -1.41.

In the case of CCGAGCAGUAUGUGAACGUTT against Cela1, the z-score is active: 3.56.

For GGUAUAGCAAGUUAAAAGATT against Hip1, the z-score is inactive: 0.39.

Take GGCACAGUUAUGCAAAAUATT against Cpa3: the z-score is inactive: -0.854.

Turning to GGAUCUGAAGCAUUUUAAATT against Nlrp10, the z-score was inactive: -0.832.

On to GGAGAUCUAUCUGGUCCAUTT against Ptrh1, for which the z-score was inactive: -0.66.

With GGAUGAUGAUAACUUACAGTT against Mro, the z-score is inactive: 0.777.

For the sequence GGCUGAAAAAUUUCAUGAUTT against Ppa2, the z-score was inactive: -0.547.

On to GCUACACUCCAAGCAAAAUTT against Anapc10, for which the z-score is inactive: -0.819.

Consider GGCACUGAAAAGAAAGAAGTT against Chmp4c, for which the z-score is inactive: -1.74.

Consider GGGUUUACUGGAAAAUAAATT against Minar2, for which the z-score was inactive: -1.27.

Regarding GGGAUCAUGUAAAUUCCACTT against Pde9a, the z-score is inactive: 0.924.

As to GCAUUGUUUGGGAAUGCCCTT against Olfr1396, the z-score is inactive: -0.403.

As for “CCCAUGAUGCCAUCUUUAATT against 2410002F23Rik”, the z-score is inactive: -1.03.

For GGAGGCCUUGUACUUACACTT against Rspo1, the z-score was inactive: 1.26.

Consider GGUAUUUAUGAAGCACACATT against Clcn3, for which the z-score was inactive: 0.451.

Consider GAAUCUCCAUUCUCCCAUGTT against Olfr1301, for which the z-score was inactive: 0.43.

Consider GGUGUCUGCCAGGAGAAAUTT against Dexi, for which the z-score is inactive: 1.11.

On to GGUUCCUCUCAAUUCCACCTT against Cav3, for which the z-score is inactive: -1.88.

As to GGAGACAGAGCAUGUGGUATT against Fam13c, the z-score is inactive: -1.59.

On to GGAGGAACAGAAGAAACUCTT against Tma7, for which the z-score was inactive: -0.0481.

For the sequence GGUUUGAUGUGGAAUCAUGTT against Tmem109, the z-score is inactive: -0.517.

GGUGCAAUCGUGUUGAGCUTT against Dap3: the z-score is inactive: 1.06.

Consider GGUGGCAUUAAGGAAAUCATT against Olfr147, for which the z-score was inactive: -0.0185.

For GGACUUUCCAGUAAGGAAATT against Mapk8ip1, the z-score is inactive: 0.996.

Turning to CGCGCAGAAUCAGAGCGAUTT against Pdcd2l, the z-score is inactive: 0.109.

Consider GGAGAAAAAGUAAAUGGUGTT against Psmd7, for which the z-score was inactive: -1.65.

Take GCUAAGUUGCUUUUCAGUGTT against H4c9: the z-score was inactive: 0.0187.

GGGUUUUUUCCAGUCAUCUTT against Nfx1: the z-score is active: -2.02.

Consider GCAGAACCAUACUAUUUGCTT against Atg5, for which the z-score is inactive: -0.464.

In the case of GAAUAUGGAGGCACCAAAGTT against Hspe1, the z-score was inactive: 0.00688.

Consider CCUUAGCCCUCAUUCACAGTT against Lrrc75a, for which the z-score is inactive: 0.806.

As for CCCUUUCUGUACUCUUAUCTT against Mlx, the z-score is inactive: 1.76.

With GGAAAGACCACAUUAUUAATT against Orc4, the z-score is inactive: 0.0347.

On to GGAAAUUUGAAGCAAGAAGTT against Mertk, for which the z-score was inactive: -1.21.

As for CCCAGUCAGAGAUCGAUACTT against Naglu, the z-score is inactive: 1.75.

On to GGAGAUUGACGGUGUGAUGTT against Cacna2d2, for which the z-score is inactive: 1.09.

On to GGCCUCACACGUCUUAAAATT against Prkcz, for which the z-score was inactive: -0.864.

For the sequence GGAGAAUGGCAAGAAUGAATT against Gpx1, the z-score was inactive: -1.79.

As to CGUAGACUUAACCUACAAATT against Dync2h1, the z-score was inactive: 1.88.

Consider GCAUGUCCUCUAUCUUCUCTT against Vmn1r205, for which the z-score is inactive: -1.76.

Take GCGGACUCUUUUCAUCAAUTT against Tmem63b: the z-score was inactive: 1.14.

Take GGGUUACCUCCUGACUGUUTT against Olfr930: the z-score was inactive: -1.9.

GGAAAGAGAAUAAAUAAGGTT against Amhr2: the z-score is inactive: -0.923.

Consider GGAUAUGGAUCUUAUGAAGTT against Lrriq4, for which the z-score is inactive: 0.577.

With CCAAAACAUUAACCUGAAGTT against Pla2g6, the z-score was active: -2.34.

As for “GGUGACUCAGAGAGUAAAATT against D830050J10Rik”, the z-score is inactive: -0.667.

For GGAUUUGGAAAAAGUGUUUTT against Hprt, the z-score was inactive: -1.21.

As for CGGGAAACAUUAGUGAAUUTT against Mapre2, the z-score is inactive: 0.383.

Regarding GGGAGAUAAAACCAACUUUTT against Fkbp3, the z-score was inactive: 1.2.

Take AUUGCAUUGUAUUCACUUGTT against Psg22: the z-score was inactive: 0.777.

GGUUUGACUGUCAGUAUUUTT against Cds1: the z-score is inactive: 1.03.

Turning to GGAGUGCUGAUAAAAGAAGTT against Atp5mpl, the z-score was inactive: -0.952.

As for GGAGAUGAAGUUAAAGCGATT against Slc26a6, the z-score is inactive: 0.619.

Consider GGAGAGGGAUUAGCCAGUATT against Ank3, for which the z-score was inactive: 0.932.

For CGGUACUUAGACUGCAUCATT against Etnppl, the z-score is inactive: 0.914.
